Measured values published in PMC6175206.
No constants are given. Whether binding was seen depends on the method and setting. In cells and extracts the contact can be indirect. Binding can be weak; no strength is given.

Biological target: N-terminally 3xFLAG-tagged Synechococcus sp. PCC 7002 chlorophyll synthase (ChlG) (Synechococcus sp. PCC 7002)
Assay: co-IP; anti-FLAG-M2 agarose column with membranes solubilised in 2% β-DDM; FLAG-buffer (25 mM sodium phosphate pH 7.4, 10 mM MgCl2, 50 mM NaCl, 10% glycerol), wash with 0.04% β-DDM, elution with 3xFLAG peptide; eluates read by SDS/PAGE and immunoblot; FLAG-6803 also before and after high light stress

binding | Binder
binds | photosystem II assembly factor Ycf39 (Slr0399) (protein, UniProt P74429 1-326) MRVLVVGGTGTLGRQIVRQAIDQGHTVVCLVRSLRKAAFLKEWGATIVGGNICKPETLSPALENIDAVIDASTARATDSLTIRQVDWEGKLNLIRAVQKAGIKKFVFFSILRAAEYPKVPLMDIKNCTEKFLAQTNLDYTILQLAGFMQGLIGQYAIPILDNQSVWQTGENTPIAYMNTQDVAKFAVRAVELDSVARKTYPVVGSRAWGATEIIQLCERMSGNNARISQVPMAVLRFMRSFTRFFQWTYNASDRLAFSEVLASGKALTADMAPVYEQFGLDPKETTTLESYLQEYFGRIIKKLKELDYEVNPTQTEGKKKKNNFFF
binds | membrane insertase YidC (Slr1471) (protein, UniProt P74155 1-384) MDFGIGFISTNIMLPILDFFFGIVHSYGFAIIALTLVIRLGLYPLSAGQIRNMRKMRITQPLMKERQEEIQKRYKDDPAKQQEEMAKVMKEFGNPLAGCLPLLLQMPILFALFATLRGSPFSDINYTVDLQILPQEQVERIVPQTFSTKPQNIYVDEALHYPIAVFLPGGKMLGVGEKTQLEIQSTEGKAFNQVIPEKNSQILTPTYSVTKGEDRISVNPDGTIEALVPGDATVQVTIPGIAARTGFLFIKALGQVGVTGENGEINWDILGMIVFFGFSIYLNQELSGASGGGAPNAQAQQQQTINKITPILFSGMFLFFPLPAGVLMYIVMANVFQTIQTLILMREPLPENLQKLLDEQQKATQGRESLPFEKKSSKKKEKTS
